Measurements: EP4825838A1, “CATIONIC LIPID AND USE THEREOF” (dated 2026)
The structures given here were assigned with low confidence; some may be wrong.

Tests used:
[1] = Freeze-drying of lipid particle compositions: particle size, PDI, encapsulation efficiency before and after (Test Example 4); settings: for Rate of change in particle size after freeze-drying (%): after vs before freeze-drying; for Particle size before freeze-drying (nm): lipid nanoparticles in 20 mM Tris, pH 7.5, 8% sucrose; for Encapsulation efficiency after freeze-drying and reconstitution (%) / Particle size after freeze-drying and reconstitution (nm): reconstitution with 0.6 mL water for injection
[2] = system: female Balb/c mice; assay: mRNA delivery efficiency after in vivo tail vein injection of luciferase mRNA lipid nanoparticle compositions (Test Example 6); settings: LNP of the compound, tail vein injection 0.5 mg/kg; for Mean fluorescence intensity (p/s) 24 h: 24 h after administration; for Mean fluorescence intensity (p/s) 48 h: 48 h after administration
[3] = Characterization of lipid nanoparticle compositions (size, PDI, encapsulation efficiency); settings: for Size (nm): lipid nanoparticles of the compound with DSPC, cholesterol, DMG-PEG 50:10:38.5:1.5, luciferase mRNA; for Size (nm) / PDI: dynamic light scattering; for Encapsulation efficiency (%) / PDI: lipid nanoparticles of the compound, luciferase mRNA; for Encapsulation efficiency (%): Quant-iT RiboGreen RNA assay kit
[4] = system: HuH-7 cells (human liver cancer cells); assay: mRNA delivery efficiency on cells, luciferase reporter assay (Test Example 5); settings: LNP of the compound with luciferase mRNA 100 ng/well, after 24 h, microplate reader
[5] = system: HEK 293 cells; assay: as above; settings: LNP of the compound with luciferase mRNA 100 ng/well, after 24 h, microplate reader
[6] = system: female Balb/c mice; assay: mRNA delivery efficiency and tissue distribution after in vivo tail vein injection of luciferase mRNA lipid nanoparticle compositions (Test Example 1); settings: for Mean fluorescence intensity (p/s) 24 h / Mean fluorescence intensity (p/s) 48 h: LNP of the compound, luciferase mRNA, tail vein injection 0.5 mg/kg, whole mouse IVIS; for Mean fluorescence intensity (p/s) 24 h: 24 h after administration; for Mean fluorescence intensity (p/s) 48 h: 48 h after administration
[7] = system: female Balb/c mice; assay: mRNA delivery efficiency after intramuscular administration of luciferase mRNA lipid nanoparticles (Test Example 2); settings: LNP of the compound, intramuscular 0.1 mg/kg, 24 h after administration
[8] = system: female Balb/c mice; assay: Hepatocyte growth factor protein expression in muscle after intramuscular injection of HGF mRNA lipid nanoparticle compositions, ELISA (Test Example 2); settings: LNP of the compound, gastrocnemius muscle injection 0.05 mg/kg, muscle at injection site after 6 h
[9] = system: interleukin 6 (IL-6); assay: In vivo safety: IL-6 concentration in muscle tissue after intramuscular injection of lipid nanoparticle compositions, ELISA (Test Example 3); settings: LNP of the compound, hepatocyte growth factor mRNA, intramuscular 0.05 mg/kg, muscle tissue at injection site after 6 h
[10] = tail vein 0.5 mg/kg, 24-hour mice dissected, heart
[11] = tail vein 0.5 mg/kg, 24-hour mice dissected, kidney
[12] = tail vein 0.5 mg/kg, 24-hour mice dissected, liver
[13] = tail vein 0.5 mg/kg, 24-hour mice dissected, lung
[14] = tail vein 0.5 mg/kg, 24-hour mice dissected, spleen

Encapsulation efficiency before freeze-drying (%) [1] | PDI after freeze-drying [1] | PDI before freeze-drying [1] | Rate of change in particle size after freeze-drying (%) [1] | Particle size before freeze-drying (nm) [1] | Encapsulation efficiency after freeze-drying and reconstitution (%) [1] | Particle size after freeze-drying and reconstitution (nm) [1] | Size (nm) [3] | Encapsulation efficiency (%) [3] | PDI [3] | SMILES | Mean fluorescence intensity (p/s) 24 h [2] | Mean fluorescence intensity (p/s) 48 h [2] | Mean fluorescence intensity [4] | Mean fluorescence intensity [5] | Mean fluorescence intensity (p/s) 24 h ([6]; 0.5 mg/kg) | Mean fluorescence intensity (p/s) 48 h ([6]; 0.5 mg/kg) | Mean fluorescence intensity (p/s) [7] | Mean protein expression level [8] | further results
97.9% | 0.08 | 0.10 | 43.5% | 64.4 nm | 80.5% | 92.4 nm | 64.4 nm | 98% | 0.06 | CCCCCCCCC(CC)OC(=O)CCCCCCCN(CCCNc1c(NC)c(=O)c1=O)CCCOCCCC(=O)OC(CCCCCCCC)CCCCCCCC (stereo not drawn) | 5.25E+08 p/s | 7.26E+07 p/s | 4.54E+07 | 1.56E+07 |  |  |  |  | Encapsulation efficiency after freeze-drying and reconstitution (%) ([1]; listed as compound 5): lower than 85%; Mean fluorescence intensity ([4]; listed as compound 5): not significantly different
98.5% | 0.24 | 0.16 | 38.2% | 71.9 nm | 84.1% | 99.4 nm | 71.9 nm | 98% | 0.16 | CCCCCCCCC(CC)OC(=O)CCCCCCCN(CCCNc1c(NC)c(=O)c1=O)CCOCCCCC(=O)OC(CCCCCCCC)CCCCCCCC (stereo not drawn) | 1.27E+09 p/s | 1.31E+08 p/s | 5.19E+07 | 1.71E+07 |  |  |  |  | Encapsulation efficiency after freeze-drying and reconstitution (%) ([1]; listed as compound 6): lower than 85%
 |  |  |  |  |  |  | 64.2 nm | 99% | 0.10 | CCCCCCCCC(CC)OC(=O)CCCCCCCN(CCCCCCCC(=O)OC(CCCCCCCC)CCCCCCCC)C1CCC(Nc2c(NC)c(=O)c2=O)CC1 (stereo not drawn) |  |  |  |  | 6.58E+09 p/s | 6.61E+08 p/s |  |  | 
 |  |  |  |  |  |  | 64.8 nm |  |  | CCCCCCCCC(CC)OC(=O)CCCCCCCN(CCCCCCCC(=O)OC(CCCCCCCC)CCCCCCCC)CCCNc1c(NC)c(=O)c1=O (stereo not drawn) | 2.02E+09 p/s | 2.84E+08 p/s | 4.18E+07 |  |  |  | 1.90E+08 p/s |  | Mean fluorescence intensity (p/s) 24 h [6]: 3.98E+09 p/s; Mean fluorescence intensity (p/s) 48 h [6]: 3.11E+08 p/s
 |  |  |  |  |  |  | 63.3 nm | 99% | 0.10 | CCCCCCCCC(CCCCCCCC)OC(=O)CCCCCCCN(CCCCCOCC(=O)OC(CCCCCCCC)CCCCCCCC)CCCNc1c(NC)c(=O)c1=O |  |  |  |  | 1.25E+10 p/s | 1.51E+09 p/s | 6.97E+08 p/s | 8.39 ng/mg | Fluorescence intensity (p/s) Heart [6, 10]: 9.52E+05 p/s; Fluorescence intensity proportion (%) Heart [6, 10]: 0.03%; Fluorescence intensity (p/s) Kidney [6, 11]: 3.48E+06 p/s; Fluorescence intensity proportion (%) Kidney [6, 11]: 0.10%; Fluorescence intensity (p/s) Liver [6, 12]: 3.12E+09 p/s; Fluorescence intensity proportion (%) Liver [6, 12]: 95.76%; Fluorescence intensity proportion (%) Liver ([6]; tail vein 0.5 mg/kg, 24-hour mice dissected, liver, listed as compound 2): > 95%; Fluorescence intensity (p/s) Lung [6, 13]: 1.39E+07 p/s; Fluorescence intensity proportion (%) Lung [6, 13]: 0.43%; Fluorescence intensity (p/s) Spleen [6, 14]: 1.20E+08 p/s; Fluorescence intensity proportion (%) Spleen [6, 14]: 3.68%; Mean fluorescence intensity (p/s) ([7]; listed as compound 2): significantly higher
99.5% | 0.08 | 0.04 | 16.4% | 67.0 nm | 92.4% | 78.0 nm | 69.6 nm | 98% | 0.08 | CCCCCCCCC(CC)OC(=O)CCCCCCCN(CCCCCOCC(=O)OC(CCCCCCCC)CCCCCCCC)CCCNc1c(NC)c(=O)c1=O (stereo not drawn) |  |  | 6.48E+07 | 2.23E+07 | 7.67E+09 p/s | 1.11E+09 p/s | 7.98E+08 p/s | 9.73 ng/mg | Tissue IL-6 concentration [9]: 164.2 pg/mg; Tissue IL-6 concentration (pg/mg) ([9]; listed as compound 1): significantly lower; particle-size distributions (PDI) ([1]; before and after freeze-drying): less than 0.1; Encapsulation efficiency after freeze-drying and reconstitution (%) ([1]; listed as compound 1): higher than 90%; Mean fluorescence intensity ([4]; listed as compound 1): significantly higher; Mean fluorescence intensity (p/s) ([7]; listed as compound 1): significantly higher
